In paper PMC12411612 one finds binding data, which are given here for one molecule.

By UniProt entry, the sequences of proteins in these tests, tags left out.
UniProt P09874: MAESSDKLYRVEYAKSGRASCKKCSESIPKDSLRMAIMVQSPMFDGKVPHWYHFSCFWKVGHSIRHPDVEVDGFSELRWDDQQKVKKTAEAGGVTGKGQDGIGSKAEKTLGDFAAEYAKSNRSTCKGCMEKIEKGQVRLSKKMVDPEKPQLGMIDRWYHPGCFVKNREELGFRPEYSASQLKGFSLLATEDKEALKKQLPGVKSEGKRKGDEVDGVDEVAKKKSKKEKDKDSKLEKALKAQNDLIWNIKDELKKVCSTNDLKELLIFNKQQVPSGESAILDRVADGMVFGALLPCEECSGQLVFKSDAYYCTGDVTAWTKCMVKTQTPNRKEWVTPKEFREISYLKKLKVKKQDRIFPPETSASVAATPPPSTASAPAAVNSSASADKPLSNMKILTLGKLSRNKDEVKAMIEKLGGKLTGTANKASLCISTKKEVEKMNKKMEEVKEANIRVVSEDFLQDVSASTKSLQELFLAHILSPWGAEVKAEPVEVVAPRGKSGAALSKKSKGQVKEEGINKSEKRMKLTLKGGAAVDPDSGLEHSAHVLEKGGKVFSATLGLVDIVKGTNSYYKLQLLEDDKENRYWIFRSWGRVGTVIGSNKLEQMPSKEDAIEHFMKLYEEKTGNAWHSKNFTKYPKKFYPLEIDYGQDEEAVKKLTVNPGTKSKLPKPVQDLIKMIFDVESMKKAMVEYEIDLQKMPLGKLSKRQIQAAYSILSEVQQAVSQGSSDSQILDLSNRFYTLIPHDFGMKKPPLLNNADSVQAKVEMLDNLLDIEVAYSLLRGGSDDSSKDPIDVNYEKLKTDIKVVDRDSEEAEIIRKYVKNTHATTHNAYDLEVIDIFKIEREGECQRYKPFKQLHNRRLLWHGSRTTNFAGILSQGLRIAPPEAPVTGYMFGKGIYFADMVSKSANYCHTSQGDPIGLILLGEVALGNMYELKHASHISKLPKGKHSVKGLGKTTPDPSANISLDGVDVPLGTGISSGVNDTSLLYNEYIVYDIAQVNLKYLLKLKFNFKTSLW

For the experiment, the target named is Flag-tagged PARP1 (Flag-hPARP1), poly(ADP-ribose) polymerase 1 (human) (UniProt P09874). As to the kind of experiment: affinity purification with mass spectrometry; nuclear extracts of T/G HA-VSMCs with the Flag-PARP1 vector or an empty vector; anti-FLAG M2 affinity gel overnight at 4 °C; additional band around 150 kDa analysed by LC–MS/MS.

These are yes or no findings as the source states them, for the method shown. In cells and extracts the contact can be indirect. Here binding means that the protein was enriched with, or labelled near, the bait; the list need not be complete. Tags and fused reporters may be left off the sequences shown.

B1: myocardin (endogenous, T/G HA-VSMC) (protein, UniProt Q8IZQ8 1-938)
chain: MTLLGSEHSLLIRSKFRSVLQLRLQQRRTQEQLANQGIIPPLKRPAEFHEQRKHLDSDKAKNSLKRKARNRCNSADLVNMHILQASTAERSIPTAQMKLKRARLADDLNEKIALRPGPLELVEKNILPVDSAVKEAIKGNQVSFSKSTDAFAFEEDSSSDGLSPDQTRSEDPQNSAGSPPDAKASDTPSTGSLGTNQDLASGSENDRNDSASQPSHQSDAGKQGLGPPSTPIAVHAAVKSKSLGDSKNRHKKPKDPKPKVKKLKYHQYIPPDQKAEKSPPPMDSAYARLLQQQQLFLQLQILSQQQQQQQHRFSYLGMHQAQLKEPNEQMVRNPNSSSTPLSNTPLSPVKNSFSGQTGVSSFKPGPLPPNLDDLKVSELRQQLRIRGLPVSGTKTALMDRLRPFQDCSGNPVPNFGDITTVTFPVTPNTLPNYQSSSSTSALSNGFYHFGSTSSSPPISPASSDLSVAGSLPDTFNDASPSFGLHPSPVHVCTEESLMSSLNGGSVPSELDGLDSEKDKMLVEKQKVINELTWKLQQEQRQVEELRMQLQKQKRNNCSEKKPLPFLAASIKQEEAVSSCPFASQVPVKRQSSSSECHPPACEAAQLQPLGNAHCVESSDQTNVLSSTFLSPQCSPQHSPLGAVKSPQHISLPPSPNNPHFLPSSSGAQGEGHRVSSPISSQVCTAQMAGLHSSDKVGPKFSIPSPTFSKSSSAISEVTQPPSYEDAVKQQMTRSQQMDELLDVLIESGEMPADAREDHSCLQKVPKIPRSSRSPTAVLTKPSASFEQASSGSQIPFDPYATDSDEHLEVLLNSQSPLGKMSDVTLLKIGSEEPHFDGIMDGFSGKAAEDLFNAHEILPGPLSPMQTQFSPSSVDSNGLQLSFTESPWETMEWLDLTPPNSTPGFSALTTSSPSIFNIDFLDVTDLNLNSSMDLHLQQW
Take B1: the binding entry is on record as “binds”.
